Measured values published in patent US5135912A, “Natriuretic peptides from the pituitary prohormone proopiomelanocortin” (Tosoh Corporation, priority 1988, dated 1992).
At least one peptide structure holds a part that was inferred or is arguable (an end, a ring closure or a residue). Where no end group is shown, it is not given here.

Tests used:
rats [1] = assay: Natriuretic and diuretic effect of intravenous bolus injection in anesthetized rats; type: in vivo, rat; conditions: 30 to 60 min after minus 30 to 0 min before injection, mean ± SEM
Method: Diuretic and natriuretic activity of the peptides of this invention is assayed in male rats of the Sprague-Dawley or Long-Evans strains. Peptide or vehicle (for control purposes) is administered by intravenous bolus injection or by continuous infusion into one renal artery of animals anesthetized for the duration of the experiment, or by intramuscular or subcutaneous injection into animals only briefly anesthetized with ether and subsequently conscious and freely moving until completion of the experiment. Timed urine samples are collected for determination of volume and measurement of sodium and potassium concentration by flame photometry. Details of each method are given in Examples II to IV below.
The natriuretic and diuretic effect of intravenous bolus injection of peptides F15R, G13R and E19R was tested in male Sprague-Dawley or Long-Evans rats weighing 300-400 g. The animals were given Inactin®, 120 mg per kg body weight i.p. under light ether anesthesia. Following placement of a tracheal cannula, the right femoral vein was catheterized for infusion of 5% bovine serum albumin at a dose of 0.4% of body weight and at a rate of 6.0 ml/hour. Subsequently, normal saline was infused for the duration of the experiment at a rate of 2.0 ml/hour. The bladder was exposed through an abdominal incision and catheterized for urine collection. Serial 15-minute urine collections in preweighed vials were begun after a recovery period of 45 minutes. After collection of four control samples, the peptide in 0.1 ml of vehicle was injected into the femoral vein over a period of 1 minute and 6 to 10 further urine samples were collected. Urine volume was determined by weighing and urine sodium and potassium were assayed by flame photometry. All peptides produced natriuresis and diuresis reaching peak levels usually between 30 and 60 minutes after injection. The difference between urine volume and sodium excretion observed from 30 to 60 minutes after and 30 to 0 minutes before peptide administration was calculated for each rat as a measure of activity.

rats [2] = assay: Natriuretic activity by intrarenal infusion into the left renal artery of anesthetized rats; type: in vivo; conditions: male Sprague-Dawley rat
rats [3] = assay: Subcutaneous administration in conscious, freely moving saline-loaded rats; type: in vivo, rat; conditions: s.c. 0.25 nmoles/kg body weight; male Long-Evans rats, i.p. saline load 2.5% of body weight; mean ± SEM

Substance | Change in Sodium Excretion (rats [1]; i.v. bolus 0.025 nmol) [μeq/30 minutes] | Change in Urine Volume (rats [1]; i.v. bolus 0.025 nmol) [μl/30 minutes] | Change in Sodium Excretion (rats [1]; i.v. bolus 0.100 nmol) [μeq/30 minutes] | Change in Urine Volume (rats [1]; i.v. bolus 0.100 nmol) [μl/30 minutes] | Peak sodium excretion rate from the infused kidney relative to basal rate (rats [2]; 30 fmol F15R per minute into left renal artery for 60 minutes, peak after one hour, FIG. 2) | Sodium excretion changes in the uninfused kidney (rats [2]; 30 fmol F15R per minute into left renal artery, spill-over into general circulation) | Sodium excretion (rats [3])
ETPMFPGNGDEQPLTENPR [E19R, Glu-Thr-Pro-Met-Phe-Pro-Gly-Asn-Gly-Asp-Glu-Gln-Pro-Leu-Thr-Glu-Asn-Pro-Arg] | 6.50 ± 3.60 | 89.0 ± 43.6 | 12.07 ± 5.08 | 104.2 |  |  | 
FPGNGDEQPLTENPR-OH [F15R, Phe-Pro-Gly-Asn-Gly-Asp-Glu-Gln-Pro-Leu-Thr-Glu-Asn-Pro-Arg-OH] |  | 111.2 |  | 306.6 | five times the basal rate | Qualitatively similar, but smaller changes | 1,330 ± 148 μeq/6 hours
